42 sequences from PMC7819943, “Rice protein-binding microarrays: a tool to detect cis-acting elements near promoter regions in rice” can be followed below.

By UniProt entry, the sequences of proteins in these tests, tags left out.
UniProt Q0JBA9, entry or part of it: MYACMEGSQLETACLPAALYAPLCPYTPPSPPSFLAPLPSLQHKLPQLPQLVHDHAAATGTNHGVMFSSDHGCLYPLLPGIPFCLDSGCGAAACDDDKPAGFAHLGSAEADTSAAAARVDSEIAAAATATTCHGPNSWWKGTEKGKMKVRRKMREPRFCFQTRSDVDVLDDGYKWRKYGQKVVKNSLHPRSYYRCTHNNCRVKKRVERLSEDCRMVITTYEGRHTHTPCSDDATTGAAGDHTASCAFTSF

The other results are listed elsewhere or left out.

The target of the assay is OsWRKY34 (Oryza sativa, UniProt Q0JBA9 1-250). Description: protein-binding microarray (RPBM); PBS, 2% BSA, 51.3 ng/ul salmon testes DNA, 50 uM zinc acetate, 200 nM TF, 25 C, 1 h; high values mean tight binding. The note with it: protein: recombinant; tags: N-terminal polyhistidine and DsRed monomer fusion (pET32a); label: CyDye5-dUTP incorporated in the synthesized complementary strand; 3' TTTTT single-stranded linker to array surface; dsDNA, one strand shown. The gist of the method: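 In PBS with 2% BSA, salmon testes DNA and 50 µM zinc acetate, 200 nM protein was incubated on a custom Agilent array at 25 °C for 1 h and then washed off. The array had been made double-stranded by primer extension with Cy5-dUTP and blocked with 2% BSA. The proteins were transcription factors fused N-terminally to polyhistidine and DsRed, expressed in E. coli BL21-CodonPlus and purified on Ni–NTA. The binding signal is per-feature fluorescence intensity (arbitrary units) from an Axon 4000B scanner.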
In the case of “CCCTCGGTCCACCTGCACCCACCGCTCTCAGTCACCTCCTCGGAGTCACCTAGTGCAG”, the binding signal was 9580 fluorescence intensity (a.u.).
The value for “CACATGTCATTCACCCATAAAGACAGTTTGTGATGTTGCTCGGAGTCACCTAGTGCAG” was 8530 fluorescence intensity (a.u.); that for “AACCCTATACCCTCAAGGGCTATTGTGCAAAACCCCGTTCCGGAGTCACCTAGTGCAG” was 8340 fluorescence intensity (a.u.); that for “ACGTCCACGAGTCCATGTCATGACACACCCCAAGTTGCTGCGGAGTCACCTAGTGCAG” was 8470 fluorescence intensity (a.u.).
Then “AATTGCACTGGATCAATAAGTAATCGTCTTCTATACTTTCCGGAGTCACCTAGTGCAG”, with 10200 fluorescence intensity (a.u.); and “GGAATTTAGCATTTCGCTGGAGCATTCATGTATATGACTTCGGAGTCACCTAGTGCAG”, with 8700 fluorescence intensity (a.u.).
Then “CTTTTCTGCACACTTTGTCCTCACTCAGCGCATGTGCCATCGGAGTCACCTAGTGCAG”, with 9150 fluorescence intensity (a.u.); and “CACCCAACCTGCTGACTCATCATGTGGCACTAGCTTCTCTCGGAGTCACCTAGTGCAG”, with 10600 fluorescence intensity (a.u.); and “ATCCATCCATCGATCGATTTTGCCTTGCCAGTTTTCATCCCGGAGTCACCTAGTGCAG”, with 13100 fluorescence intensity (a.u.).
Regarding “CGATACAATAGCTAGGGTTGGCTTTGGGCTTTGGCGCGGCCGGAGTCACCTAGTGCAG”, the binding signal was 8900 fluorescence intensity (a.u.).
On to “GTTAGTTGTGTAGGGCATCTTCTTAATTTGTTTTTGTTTTCGGAGTCACCTAGTGCAG”, for which the binding signal was 14800 fluorescence intensity (a.u.).
“ATCGTCTCACTGTCTCACCGATCGAGCTAGCTCTCGTCGGCGGAGTCACCTAGTGCAG”: the binding signal was 8370 fluorescence intensity (a.u.).
The value for “CATGCTCGCGGTCGCCGCCGCGCGCCACGTCGCGCCTTCACGGAGTCACCTAGTGCAG” was 8680 fluorescence intensity (a.u.); that for “CCTCAAAACCTCCGAGGGACCTCGTTTGCCCGGTTTTCATCGGAGTCACCTAGTGCAG” was 8190 fluorescence intensity (a.u.).
For “ATAAATTTCCGTATCCAACGTTTTATGGTCTGTTTTATTTCGGAGTCACCTAGTGCAG”, the binding signal was 11200 fluorescence intensity (a.u.).
For the sequence “CCCACCCGCGCTTCTTCGCCACCGCCTGACCTCCACCCTGCGGAGTCACCTAGTGCAG”, the binding signal was 8140 fluorescence intensity (a.u.).
On to “GCTGTCAACCGTCCAGCCAATCCCACGCTCACACCTGCCACGGAGTCACCTAGTGCAG”, for which the binding signal was 12100 fluorescence intensity (a.u.).
“CCCACCACCCGCCCCGCTCGCCGACGCGGCGGCCATGGCGCGGAGTCACCTAGTGCAG”: the binding signal was 10100 fluorescence intensity (a.u.).
Turning to “TGCTTGTAACGTTTGATCACTCGTCTTATTCAATTTTTTTCGGAGTCACCTAGTGCAG”, the binding signal is 8150 fluorescence intensity (a.u.).
For “TCGATCGGTTGGTTGGTTGGTTTTGTTGGATTTTTTTCCTCGGAGTCACCTAGTGCAG”, the binding signal was 18700 fluorescence intensity (a.u.).
Turning to “ATTGTTGTGAGTTCTGGCTTGTGGTTTGTTCGAATTCTGGCGGAGTCACCTAGTGCAG”, the binding signal was 8670 fluorescence intensity (a.u.).
For the sequence “AACCGTACAATTTTTCTTTTTGCTTTTCTTCCTGCCATATCGGAGTCACCTAGTGCAG”, the binding signal was 9890 fluorescence intensity (a.u.).
For “CCTCTTTTTCTTTCTTTCTTGCGGAGGCGGAAGGTAGGGGCGGAGTCACCTAGTGCAG”, the binding signal was 11800 fluorescence intensity (a.u.).
“TCTCCTCTTTAAATTTCTCGCGCTGTTGTTGTTGTGATTTCGGAGTCACCTAGTGCAG”: the binding signal is 8890 fluorescence intensity (a.u.).
With “CGGTGGAGGCAGGCGTGGCGGGCGACGAGGAGAGGGGTGGCGGAGTCACCTAGTGCAG”, the binding signal is 8570 fluorescence intensity (a.u.).
For the sequence “CTAGTAGCTATTGACTTGGCCGCCAGAGTCGATGGTTGACCGGAGTCACCTAGTGCAG”, the binding signal is 9120 fluorescence intensity (a.u.).
“TTTACTCATAAATATTGTTTGGAATTTCTCTGCGTATATTCGGAGTCACCTAGTGCAG”: the binding signal was 8140 fluorescence intensity (a.u.).
Turning to “TCTTGGGGACATGTAGCAATTTCCAGTCATTTGCCCCTTTCGGAGTCACCTAGTGCAG”, the binding signal was 9210 fluorescence intensity (a.u.).
The value for “GCCTCATCCGATTTTGTTGCTAGTGAGTTTTTGAATATGCCGGAGTCACCTAGTGCAG” was 8200 fluorescence intensity (a.u.); that for “CAGTAAACATTAAAGCAAATCCGTCTCCAACTTGACTGCCCGGAGTCACCTAGTGCAG” was 8460 fluorescence intensity (a.u.); that for “GCTCACCTAACCCATTCACGTGGCGCCAAACCCTCAGGGGCGGAGTCACCTAGTGCAG” was 8250 fluorescence intensity (a.u.).
Then “CTCGTAGCGCTCGACCTCCTGCTTCTTCTCGTCGTCGTCGCGGAGTCACCTAGTGCAG”, with 8350 fluorescence intensity (a.u.); and “GGCAACTCATGGTGTATGATGGATGGATATCGTTGTTTGCCGGAGTCACCTAGTGCAG”, with 8060 fluorescence intensity (a.u.); and “TGCCCTCCTTCTTCGTCTTCGTGAGATCATCTTGTCCCAACGGAGTCACCTAGTGCAG”, with 8510 fluorescence intensity (a.u.).
With “CCGCAACCCGCGCCGTCGACTTCCTCGCCAACGTAAGCCACGGAGTCACCTAGTGCAG”, the binding signal is 8820 fluorescence intensity (a.u.).
Take “ATCTTATCCGTCCATATGCCATCTCATCCCACTCCACCGACGGAGTCACCTAGTGCAG”: the binding signal was 10400 fluorescence intensity (a.u.).
“TTCTTCCCAGCCAGTGTTCCTAGTATCCATTCTCTCTCAACGGAGTCACCTAGTGCAG”: the binding signal is 9850 fluorescence intensity (a.u.).
“GGCCCGAACCTGTATAGATCGTCGGTGTCTCGTGTTTTCTCGGAGTCACCTAGTGCAG”: the binding signal is 9600 fluorescence intensity (a.u.).
“ATTTATTTCTAATAGGAGTTGAGTTGGTTTTCGTGTTCCGCGGAGTCACCTAGTGCAG”: the binding signal is 8480 fluorescence intensity (a.u.).
The value for “CCCAGCCCACTAAAACCACACTCCGATCCGAAACCGTCTTCGGAGTCACCTAGTGCAG” was 10500 fluorescence intensity (a.u.).
Turning to “CTCGTGTGTCTTGCGGGCGGGTGATCTTTCCACATACAGACGGAGTCACCTAGTGCAG”, the binding signal was 19200 fluorescence intensity (a.u.).
Regarding “GCTTTAATTCCTTCCCTTTTTTTCTTCTCCCCAAAACTTACGGAGTCACCTAGTGCAG”, the binding signal is 8110 fluorescence intensity (a.u.).
